Measurements reported in PubChem BioAssay AID1224826 (NIAID, 2016)

Screen: 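Genes that change LPS-induced Tnf promoter activity in mouse macrophages when knocked down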 (primary screen)
Cells: RAW264.7 G9 macrophages from mouse bearing reporters for p65 (GFP) and the Tnf promoter (mCherry)
Reagent: siRNA pool against mouse genes, 100 nM
Timing: 16 h of LPS stimulation, after 2 days of siRNA transfection
Treatment: bacterial lipopolysaccharide (Salmonella minnesota R595), 10 ng/ml
Detection: 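Imaged Tnf reporter mCherry in nuclei, minus background, normalised per plate to the median and expressed as robust z-scores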
Direction: Tnf reporter robust z-score: higher = stronger Tnf promoter reporter signal after LPS; Tnf reporter intensity: higher = stronger Tnf promoter reporter signal
Call rule: 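Called active when robust z-score is at most -1.3, matching the median of the Tlr4 knock-down control, or over 3; control wells and wells with under 50 cells never active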
Meaning of the calls: active = Tnf reporter clearly lowered or raised; inactive = no clear change in Tnf reporter
Here is an unselected part of about 17,000 reagents tested. About 1,110 of all reagents (6.6%) were called active. 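Active means lowered or raised reporter signal; replicate intensities are raw and not normalised per plate.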 Unmarked entries are inactive. The numbers tell different reagents against one gene apart. No sequences are given here.

| target gene | reagent no. | Tnf reporter robust z-score | fewer than 50 cells in well | Tnf reporter intensity, replicate 1 | Tnf reporter intensity, replicate 2 |
| --- | --- | --- | --- | --- | --- |
| Nr2c1 | 1 | -0.6 | enough cells in well | 196 | 142 |
| Pcyox1l | 1 | 1.47 | enough cells in well | 234 | 280 |
| Pdcl2 | 1 | -0.98 | enough cells in well | 111 | 77.1 |
| Pclo | 1 | – | fewer than 50 cells per well; well left out of calls | 74.7 | 78.9 |
| Arhgap25 | 1 | -1.09 | enough cells in well | 232 | 97.2 |
| Phf14 | 1 | – | fewer than 50 cells per well; well left out of calls | 148 | 62.5 |
| Emp3 | 1 | 0.41 | enough cells in well | 271 | 162 |
| Ube2j1 | 1 | -0.16 | enough cells in well | 202 | 237 |
| Dgat1 | 1 | -1.17 | enough cells in well | 142 | 123 |
| Susd2 | 1 | -0.74 | enough cells in well | 82.3 | 58.9 |
| Saraf | 1 | – | fewer than 50 cells per well; well left out of calls | 53.2 | 20.4 |
| Vmn1r50 | 1 | 0.27 | enough cells in well | 129 | 86.1 |
| 4933430I17Rik | 1 | -0.77 | enough cells in well | 143 | 97.4 |
| St8sia4 | 1 | -1.78 (active) | enough cells in well | 68.3 | 37.5 |
| Tex47 | 1 | 0.91 | enough cells in well | 221 | 90.5 |
| Isg20l2 | 1 | 1.18 | enough cells in well | 256 | 210 |
| Tbc1d8b | 1 | 0.1 | enough cells in well | 192 | 189 |
| Gfral | 1 | 1.22 | enough cells in well | 390 | 202 |
| Rpl12 | 1 | -0.64 | enough cells in well | 105 | 102 |
| Prpf3 | 1 | 0.1 | enough cells in well | 154 | 114 |
| Ptges | 1 | -1.22 | enough cells in well | 149 | 109 |
| Cep70 | 1 | 0.31 | enough cells in well | 150 | 139 |
| Tenm3 | 1 | -0.27 | enough cells in well | 239 | 149 |
| Dock2 | 1 | -1.73 (active) | enough cells in well | 112 | 69.9 |
| Jph3 | 1 | 0.94 | enough cells in well | 312 | 201 |
| Ndc1 | 1 | -0.27 | enough cells in well | 181 | 51.1 |
| Osgin2 | 1 | -1.07 | enough cells in well | 113 | 154 |
| Pdhx | 1 | 0.02 | enough cells in well | 276 | 157 |
| Prmt2 | 1 | -1.24 | enough cells in well | 167 | 84.7 |
| Slc22a7 | 1 | 0.72 | enough cells in well | 125 | 86.9 |
| Vti1a | 1 | 2.98 | enough cells in well | 222 | 192 |
| Vti1a | 2 | – | fewer than 50 cells per well; well left out of calls | 168 | 62.2 |
| Col5a1 | 1 | -0.82 | enough cells in well | 170 | 158 |
| Frmd6 | 1 | – | fewer than 50 cells per well; well left out of calls | 132 | 50.6 |
| Spinkl | 1 | 2.17 | enough cells in well | 305 | 334 |
| Amot | 1 | 0.32 | enough cells in well | 236 | 201 |
| Rgr | 1 | 0.56 | enough cells in well | 364 | 93.2 |
| Dcph1 | 1 | – | fewer than 50 cells per well; well left out of calls | 172 | 17.4 |

Entries listed so far called active:
| target gene | reagent no. | Tnf reporter robust z-score | fewer than 50 cells in well | Tnf reporter intensity, replicate 1 | Tnf reporter intensity, replicate 2 |
| --- | --- | --- | --- | --- | --- |
| St8sia4 | 1 | -1.78 (active) | enough cells in well | 68.3 | 37.5 |
| Dock2 | 1 | -1.73 (active) | enough cells in well | 112 | 69.9 |

The list goes on:
| target gene | reagent no. | Tnf reporter robust z-score | fewer than 50 cells in well | Tnf reporter intensity, replicate 1 | Tnf reporter intensity, replicate 2 |
| --- | --- | --- | --- | --- | --- |
| Osm | 1 | 1.65 | enough cells in well | 379 | 182 |
| Xpnpep3 | 1 | -0.4 | enough cells in well | 207 | 190 |
| Vmn1r188 | 1 | -1.05 | enough cells in well | 78.3 | 57.5 |
| Ly96 | 1 | -1.16 | enough cells in well | 119 | 39.3 |
| Trpm8 | 1 | 0.35 | enough cells in well | 238 | 279 |
| Abcc10 | 1 | 0.74 | enough cells in well | 185 | 212 |
| Grep1 | 1 | -1.06 | enough cells in well | 185 | 79.5 |
| Mrpl42 | 1 | – | fewer than 50 cells per well; well left out of calls | 141 | 51.6 |
| Dennd11 | 1 | -0.44 | enough cells in well | 181 | 83.3 |
| Crh | 1 | 0.98 | enough cells in well | 296 | 287 |
| Gm5111 | 1 | – | fewer than 50 cells per well; well left out of calls | 199 | 169 |
| Cd5l | 1 | -0.89 | enough cells in well | 158 | 159 |
| Col1a2 | 1 | -0.46 | enough cells in well | 199 | 184 |
| A430033K04Rik | 1 | -0.08 | enough cells in well | 151 | 166 |
| Epha4 | 1 | 0.56 | enough cells in well | 205 | 212 |
| Pdxk | 1 | 2.46 | enough cells in well | 330 | 322 |
| Kcnd1 | 1 | -0.19 | enough cells in well | 222 | 143 |
| Tg | 1 | -0.96 | enough cells in well | 151 | 94.5 |
| Rhoh | 1 | – | fewer than 50 cells per well; well left out of calls | 129 | 78.7 |
| Stpg2 | 1 | -0.31 | enough cells in well | 198 | 171 |
| Nudc | 1 | 0.31 | enough cells in well | 249 | 215 |
| Col4a3 | 1 | -0.25 | enough cells in well | 212 | 203 |
| Fam163a | 1 | -0.46 | enough cells in well | 143 | 131 |
| Art2a | 1 | 0.57 | enough cells in well | 213 | 188 |
| Smad7 | 1 | 2.62 | enough cells in well | 348 | 323 |
| Ahsa2 | 1 | – | fewer than 50 cells per well; well left out of calls | 161 | 76.5 |
| Col10a1 | 1 | -0.04 | enough cells in well | 203 | 243 |
| Gulp1 | 1 | -0.94 | enough cells in well | 176 | 159 |
| Arhgap15 | 1 | -0.52 | enough cells in well | 161 | 116 |
| Preb | 1 | 0.39 | enough cells in well | 257 | 236 |
| Zdhhc16 | 1 | -1.35 (active) | enough cells in well | 68.7 | 72 |
| Rbpj | 1 | 1.17 | enough cells in well | 515 | 229 |
| Mrgprb1 | 1 | 2.46 | enough cells in well | 244 | 289 |
| Otub2 | 1 | – | fewer than 50 cells per well; well left out of calls | 159 | 41 |
| Or4g17 | 1 | 3.7 (active) | enough cells in well | 374 | 294 |
| Gpd2 | 1 | – | fewer than 50 cells per well; well left out of calls | 124 | 160 |
| Epor | 1 | 1.02 | enough cells in well | 289 | 331 |
